Among all 68,000 compounds or so, about 60 (0.09%) were called active. Inconclusive results, whose numbers are uncertain, are shown with a selection of clear calls. Calls come from the whole dose curve; as a rule, active = well fitted curve in the direction sought with a large enough effect; inconclusive = small, poorly fitted or top-dose-only effect; inactive = flat fitted curve, though single readings scatter. A potency beside an inconclusive call is a rough fit, not a confirmed value.
Test: qHTS Assay for Epigenetic Modulators; for GFP derepression (activation): % of control where 0% means no effect
Details: mouse C127i GFP locus derepression, cytometry, 30 h; series mostly up to 46.1 µM
Summary of the method: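 Murine C127i mammary cells carrying a silenced, stably integrated CMV-driven GFP reporter were treated with compound for 30 hours at 37 C. After PBS washes, GFP-positive cells were counted by laser-scanning microplate cytometry.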

For `Nc1ncnc2nc(N3CCN(CCO)CC3)[nH]c12`, which GFP derepression (activation) is on record?
Its GFP derepression (activation) is inactive: 20.7% [at 9.22 µM].

With `Clc1ccc(C(c2ccc(Cl)cc2)n2cc[n+](C[C@@H](OCc3ccc(Cl)cc3Cl)c3ccc(Cl)cc3Cl)c2)cc1` as the compound, how does the Potency read?
The Potency was “inactive”.

With `Cc1csc(-c2coc3cc(O)cc(C)c3c2=O)n1` as the compound, how does the Potency read?
Its Potency is inconclusive: 31.6 µM [single point].

Which Potency does the source give for `OC[C@H](S)CS` here?
The Potency was active: 3.16 µM.

With `FC(F)(F)c1cc(NC(=S)N2c3ccccc3-n3cccc3[C@H]2c2cccnc2)cc(C(F)(F)F)c1` as the compound, how does the GFP derepression (activation) read?
Its GFP derepression (activation) is inactive: -2.2% [at 9.22 µM].

For `Cc1ccc2c(c1)nnn2C1CCN(CC(=O)c2ccc(Cl)cc2)CC1`, which Potency is on record?
Its Potency is inconclusive: 31.6 µM [single point].

Which Potency does the source give for `CN(C)CC(C(=O)c1ccccc1)c1ccccc1` (stereo unspecified) here?
The Potency was inconclusive: 5.01 µM [single point].

With `CC(=O)CCc1oc2ccc(NC(C)=O)cc2c1-c1ccc(C)o1` as the compound, how does the Potency read?
Its Potency is inconclusive: 25.1 µM [single point].

Which Potency does the source give for `O=C(Nc1nc(-c2ccncc2)cs1)c1ccc(S(=O)(=O)N2CCOCC2)cc1` here?
Its Potency is inconclusive: 31.6 µM [single point].

Which Potency does the source give for `COC(=O)COc1ccc(S(=O)(=O)Nc2ccccc2C(=O)OC)cc1` here?
The Potency was “inactive”.

Which Potency does the source give for `CCOC(=O)CNC(=O)c1ccccc1Br` here?
The Potency was inconclusive: 31.6 µM [single point].

With `COc1ccc(N(CC(=O)Nc2nc3ccc(C)cc3s2)S(=O)(=O)c2c(C)nn(C)c2C)cc1` as the compound, how does the Potency read?
The Potency was inconclusive: 31.6 µM [single point].

Which Potency does the source give for `CCOC(=O)C1CCN(CC(=O)Nc2c(C(=O)OC)[nH]c3ccccc23)CC1` here?
Its Potency is inconclusive: 5.01 µM [single point].

Which Potency does the source give for `Cc1cccc2sc(NC(=O)C3CCCN(S(=O)(=O)c4cccc5nonc45)C3)nc12` (stereo unspecified) here?
Its Potency is inconclusive: 20 µM [single point].

For `c1coc(-c2nc3nc4ccccc4n3nc2-c2ccco2)c1`, which Potency is on record?
Its Potency is inconclusive: 31.6 µM [single point].

For `Cn1cnnc1SCC(=O)c1ccc2c(c1)CCCC2`, which Potency is on record?
Its Potency is inconclusive: 31.6 µM [single point].

With `CCCCNC1C(CC)C(CCC)C(C#N)(C#N)C1(C#N)C#N` (stereo unspecified) as the compound, how does the Potency read?
Its Potency is inconclusive: 31.6 µM [single point].

Which Potency does the source give for `O=C(Nc1ccc(-c2cn3ccsc3n2)cc1)c1ccc(F)c(S(=O)(=O)N2CCOCC2)c1` here?
Its Potency is “inactive”.

Which Potency does the source give for `O=C(Nc1cccc2ccccc12)OC1C=CS(=O)(=O)C1` (stereo unspecified) here?
Its Potency is inconclusive: 31.6 µM [single point].

For `COc1ccccc1-c1nc(C#N)c(N2CCc3ccccc3C2)o1`, which Potency is on record?
Its Potency is “inactive”.

Which Potency does the source give for `CNc1cc(C)nc(-n2nc(C)cc2C)n1` here?
The Potency was inconclusive: 25.1 µM [single point].

For `C=C(NC(=O)C(=C)NC(=O)c1csc(C2=N[C@@H]3c4csc(n4)[C@@H]4NC(=O)c5csc(n5)[C@@H]([C@](C)(O)[C@H](C)O)NC(=O)[C@@H]5CSC(=N5)/C(=C/C)NC(=O)[C@@H]([C@H](C)O)NC(=O)c5csc(n5)[C@]3(CC2)NC(=O)[C@@H](C)NC(=O)C(=C)NC(=O)[C@@H](C)NC(=O)[C@@H]([C@@H](C)CC)N[C@H]2C=Cc3c([C@H](C)O)cc(nc3[C@@H]2O)C(=O)O[C@H]4C)n1)C(N)=O`, which Potency is on record?
The Potency was inconclusive: 12.6 µM [single point].

Which Potency does the source give for `CCOc1ncccc1C(=O)OCc1cc(=O)oc2c(C)c(C)ccc12` here?
Its Potency is inconclusive: 31.6 µM [single point].

Which Potency does the source give for `Cc1cc(NC(=O)CSc2ccc(-c3nc4cc(C)c(C)cc4[nH]3)cn2)no1` here?
The Potency was inconclusive: 15.8 µM [single point].

For `N#Cc1c(NC(=O)CN2CCN(S(=O)(=O)c3ccc4c(c3)OCCO4)CC2)sc2c1CCC2`, which Potency is on record?
Its Potency is inconclusive: 31.6 µM [single point].

Which Potency does the source give for `Cc1ccccc1-n1nnc2c(=O)oc3ccccc3c21` here?
The Potency was inconclusive: 20 µM [single point].

Which Potency does the source give for `CCc1nnc(NC(=O)c2cccc(C(=O)Nc3nnc(CC)s3)n2)s1` here?
The Potency was inconclusive: 3.16 µM [partial curve].

With `COc1cc2nc(=S)n3[nH]c(CCn4nc(C)cc4C)nc3c2cc1OC` as the compound, how does the Potency read?
Its Potency is active: 10 µM.

For `N#CC1=C(SCC(=O)c2ccc(Cl)cc2)NC2=C(C(=O)CCC2)C1c1ccco1` (stereo unspecified), which Potency is on record?
Its Potency is active: 10 µM.

Which Potency does the source give for `CC(C)c1cc(C(=O)Nc2ccc3c(c2)OCO3)no1` here?
The Potency was “inactive”.

With `CCOC(=O)c1ccc(NC(=O)Nc2ccc3c4c(cccc24)C(=O)N3CC)cc1` as the compound, how does the Potency read?
Its Potency is inconclusive: 31.6 µM [single point].

Which Potency does the source give for `C=CCSc1nnc(-c2ccc(Cl)cc2Cl)o1` here?
Its Potency is “inactive”.

Which Potency does the source give for `COc1cccc(Nc2ncc3nc(-c4cccs4)c(=O)n(CCC#N)c3n2)c1` here?
Its Potency is inconclusive: 1 µM [single point].

With `CCOc1ccccc1N(CC(=O)O)S(=O)(=O)c1ccc(C)cc1` as the compound, how does the Potency read?
The Potency was inconclusive: 3.98 µM [single point].

For `Oc1ccccc1NCC(O)Cn1ccc2ccccc21` (stereo unspecified), which Potency is on record?
Its Potency is inconclusive: 25.1 µM [single point].

With `OC(C#Cc1ccccn1)c1cccs1` (stereo unspecified) as the compound, how does the Potency read?
The Potency was inconclusive: 25.1 µM [single point].

With `Cn1cc(C(=O)c2ccccc2)cc1-c1nc2ccccc2n1C` as the compound, how does the Potency read?
The Potency was “inactive”.

For `O=C(O)CSc1cccc2cccnc12`, which Potency is on record?
The Potency was inconclusive: 31.6 µM [single point].

With `COc1ccc(Cn2c3nc4ccccc4nc3c3c(=O)n(Cc4ccco4)c(C)nc32)cc1` as the compound, how does the Potency read?
Its Potency is inconclusive: 31.6 µM [single point].

For `CN(C)c1ncc2nc(-c3ccc(F)cc3)c(=O)n(C[C@H]3CCCO3)c2n1`, which Potency is on record?
Its Potency is inconclusive: 1 µM [single point].

With `N#CC(C#N)=c1ccc2c(c1)N1C3=C(CCCC3)CC3CCCCC31N=2` (stereo unspecified) as the compound, how does the Potency read?
Its Potency is inconclusive: 15.8 µM [single point].

Which Potency does the source give for `O=C(Cn1cnnn1)OCC(=O)c1ccc(Cl)s1` here?
The Potency was “inactive”.

For `CCC(C)(C)n1nnnc1CN(Cc1ccco1)Cc1cc2cc3c(cc2[nH]c1=O)OCO3`, which Potency is on record?
Its Potency is “inactive”.

Which Potency does the source give for `CC(C)Cn1c(SCC(=O)NC(=O)Nc2ccc3c(c2)OCCO3)nc2ccccc2c1=O` here?
The Potency was “inactive”.

With `CN1CCN(Cc2cc(COCc3ccccc3)c3cccnc3c2O)CC1` as the compound, how does the Potency read?
Its Potency is active: 6.31 µM.

With `COc1ccc(CCn2c(=S)[nH]c3cc(C(=O)NCc4ccco4)ccc3c2=O)cc1OC` as the compound, how does the Potency read?
Its Potency is inconclusive: 31.6 µM [single point].
